Measured data: PubChem BioAssay AID743454 (Peter MacCallum Cancer Centre, 2014)

- Test: 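Search for knock-downs that restore vorinostat killing in resistant colon cancer cells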 (primary screen)
- System: human HCT116-VR colon cancer cells, selected for vorinostat resistance
- Knock-down reagent: siRNA pool against human genes, 40 nM siRNA pool
- Time to read-out: vorinostat for 24 h, read-out about 72 h after transfection
- Conditions: vorinostat at 2.5 µM final
- Measurement: 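Two measures, CellTiter-Fluor viability and luminescent caspase 3/7 activity, each as fold change against same-plate mock wells, mean of duplicates, then screen-wide robust z-score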
- Scale: viability robust z-score: higher = more viable cells than screen typical; caspase robust z-score: higher = more caspase 3/7 activity than screen typical
- Hit rule: 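Hits are knock-downs in viability class RV1/RV2 or caspase class CA1/CA2, excluding ones that killed cells in the no-drug cell-count arm; hits then retested with single siRNAs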
The whole screen tested about 18,000 reagents; below is a part drawn at random. 450 of all reagents (2.5%) were called active. 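Single biological run; no consistent viability z cut-off exists, so the class columns, not z-scores, define the calls.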

With knock-down of SLC50A1, the screen gave viability hit class no change; caspase hit class no change; viability robust z-score 1.42; caspase robust z-score -0.16; inactive. OR4D1 showed viability hit class no change; caspase hit class no change; viability robust z-score -0.24; caspase robust z-score 0.4; inactive. With knock-down of REV3L the results were viability hit class no change; caspase hit class no change; viability robust z-score 0.18; caspase robust z-score -0.64; inactive. For CRTAM the deposit lists viability hit class no change; caspase hit class no change; viability robust z-score 1; caspase robust z-score 0.22; inactive. Silencing of SERINC4 gave: viability hit class no change; caspase hit class no change; viability robust z-score -1.21; caspase robust z-score -1.23; inactive. With knock-down of REC114 the results were viability hit class no change; caspase hit class no change; viability robust z-score 1.17; caspase robust z-score 2.34; inactive.

AGPAT2 showed viability hit class no change; caspase hit class no change; viability robust z-score -0.21; caspase robust z-score 0.52; inactive. For OTUB1 the deposit lists viability hit class no change; caspase hit class no change; viability robust z-score -0.97; caspase robust z-score 1.56; inactive. For HIP1R the deposit lists viability hit class no change; caspase hit class no change; viability robust z-score -1.62; caspase robust z-score 1.15; inactive. For IRAK1BP1, the values are viability hit class no change; caspase hit class no change; viability robust z-score 0.32; caspase robust z-score -0.77; inactive. GFM1 gave viability hit class no change; caspase hit class no change; viability robust z-score -0.78; caspase robust z-score 0.5; inactive. With knock-down of PDLIM1 the results were viability hit class no change; caspase hit class no change; viability robust z-score -1.98; caspase robust z-score 0.89; inactive.

Depletion of C8orf76 resulted in: viability hit class no change; caspase hit class no change; viability robust z-score -0.07; caspase robust z-score -0.14; inactive. PNMT scored viability hit class no change; caspase hit class no change; viability robust z-score -1.21; caspase robust z-score 3.18; inactive. GBX2 showed viability hit class no change; caspase hit class no change; viability robust z-score -0.31; caspase robust z-score 3.69; inactive. Depletion of UGP2 came out at: viability hit class no change; caspase hit class no change; viability robust z-score 0.43; caspase robust z-score 0.55; inactive. For VPS4A the deposit lists viability hit class no change; caspase hit class CA2 (caspase activation); viability robust z-score -0.56; caspase robust z-score 5.3; active. For TACC1 the deposit lists viability hit class no change; caspase hit class CA1 (caspase activation); viability robust z-score -1.15; caspase robust z-score 7.63; active.

POU3F3 gave viability hit class no change; caspase hit class no change; viability robust z-score -0.18; caspase robust z-score 0.12; inactive. Against ZNF100, the values are viability hit class no change; caspase hit class no change; viability robust z-score -0.12; caspase robust z-score -0.22; inactive. For SLC39A14, the values are viability hit class no change; caspase hit class no change; viability robust z-score -0.01; caspase robust z-score -0.8; inactive.

Records listed above called active (2):
VPS4A — viability hit class: no change; caspase hit class: CA2 (caspase activation); viability robust z-score: -0.56; caspase robust z-score: 5.3; call: active
TACC1 — viability hit class: no change; caspase hit class: CA1 (caspase activation); viability robust z-score: -1.15; caspase robust z-score: 7.63; call: active
